Assay results published in patent US20100189725A1.
These are yes or no findings as the source states them, for the method shown. Binding seen in cells or lysates may run through a third protein. Here binding means that the protein was enriched with, or labelled near, the bait; the list need not be complete.

Protein sequences, listed by entry. Tags and fused reporters are not part of them.
UniProt P02340: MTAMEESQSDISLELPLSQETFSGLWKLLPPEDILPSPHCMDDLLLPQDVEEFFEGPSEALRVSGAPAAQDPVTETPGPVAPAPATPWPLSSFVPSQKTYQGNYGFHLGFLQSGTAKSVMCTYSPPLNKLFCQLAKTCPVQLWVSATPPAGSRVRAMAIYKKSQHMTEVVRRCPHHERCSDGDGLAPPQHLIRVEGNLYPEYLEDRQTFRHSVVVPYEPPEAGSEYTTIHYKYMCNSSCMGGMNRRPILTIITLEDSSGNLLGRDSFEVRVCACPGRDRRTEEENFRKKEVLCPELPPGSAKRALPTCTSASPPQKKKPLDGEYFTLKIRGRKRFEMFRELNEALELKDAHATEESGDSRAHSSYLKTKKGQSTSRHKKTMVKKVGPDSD
UniProt P70399: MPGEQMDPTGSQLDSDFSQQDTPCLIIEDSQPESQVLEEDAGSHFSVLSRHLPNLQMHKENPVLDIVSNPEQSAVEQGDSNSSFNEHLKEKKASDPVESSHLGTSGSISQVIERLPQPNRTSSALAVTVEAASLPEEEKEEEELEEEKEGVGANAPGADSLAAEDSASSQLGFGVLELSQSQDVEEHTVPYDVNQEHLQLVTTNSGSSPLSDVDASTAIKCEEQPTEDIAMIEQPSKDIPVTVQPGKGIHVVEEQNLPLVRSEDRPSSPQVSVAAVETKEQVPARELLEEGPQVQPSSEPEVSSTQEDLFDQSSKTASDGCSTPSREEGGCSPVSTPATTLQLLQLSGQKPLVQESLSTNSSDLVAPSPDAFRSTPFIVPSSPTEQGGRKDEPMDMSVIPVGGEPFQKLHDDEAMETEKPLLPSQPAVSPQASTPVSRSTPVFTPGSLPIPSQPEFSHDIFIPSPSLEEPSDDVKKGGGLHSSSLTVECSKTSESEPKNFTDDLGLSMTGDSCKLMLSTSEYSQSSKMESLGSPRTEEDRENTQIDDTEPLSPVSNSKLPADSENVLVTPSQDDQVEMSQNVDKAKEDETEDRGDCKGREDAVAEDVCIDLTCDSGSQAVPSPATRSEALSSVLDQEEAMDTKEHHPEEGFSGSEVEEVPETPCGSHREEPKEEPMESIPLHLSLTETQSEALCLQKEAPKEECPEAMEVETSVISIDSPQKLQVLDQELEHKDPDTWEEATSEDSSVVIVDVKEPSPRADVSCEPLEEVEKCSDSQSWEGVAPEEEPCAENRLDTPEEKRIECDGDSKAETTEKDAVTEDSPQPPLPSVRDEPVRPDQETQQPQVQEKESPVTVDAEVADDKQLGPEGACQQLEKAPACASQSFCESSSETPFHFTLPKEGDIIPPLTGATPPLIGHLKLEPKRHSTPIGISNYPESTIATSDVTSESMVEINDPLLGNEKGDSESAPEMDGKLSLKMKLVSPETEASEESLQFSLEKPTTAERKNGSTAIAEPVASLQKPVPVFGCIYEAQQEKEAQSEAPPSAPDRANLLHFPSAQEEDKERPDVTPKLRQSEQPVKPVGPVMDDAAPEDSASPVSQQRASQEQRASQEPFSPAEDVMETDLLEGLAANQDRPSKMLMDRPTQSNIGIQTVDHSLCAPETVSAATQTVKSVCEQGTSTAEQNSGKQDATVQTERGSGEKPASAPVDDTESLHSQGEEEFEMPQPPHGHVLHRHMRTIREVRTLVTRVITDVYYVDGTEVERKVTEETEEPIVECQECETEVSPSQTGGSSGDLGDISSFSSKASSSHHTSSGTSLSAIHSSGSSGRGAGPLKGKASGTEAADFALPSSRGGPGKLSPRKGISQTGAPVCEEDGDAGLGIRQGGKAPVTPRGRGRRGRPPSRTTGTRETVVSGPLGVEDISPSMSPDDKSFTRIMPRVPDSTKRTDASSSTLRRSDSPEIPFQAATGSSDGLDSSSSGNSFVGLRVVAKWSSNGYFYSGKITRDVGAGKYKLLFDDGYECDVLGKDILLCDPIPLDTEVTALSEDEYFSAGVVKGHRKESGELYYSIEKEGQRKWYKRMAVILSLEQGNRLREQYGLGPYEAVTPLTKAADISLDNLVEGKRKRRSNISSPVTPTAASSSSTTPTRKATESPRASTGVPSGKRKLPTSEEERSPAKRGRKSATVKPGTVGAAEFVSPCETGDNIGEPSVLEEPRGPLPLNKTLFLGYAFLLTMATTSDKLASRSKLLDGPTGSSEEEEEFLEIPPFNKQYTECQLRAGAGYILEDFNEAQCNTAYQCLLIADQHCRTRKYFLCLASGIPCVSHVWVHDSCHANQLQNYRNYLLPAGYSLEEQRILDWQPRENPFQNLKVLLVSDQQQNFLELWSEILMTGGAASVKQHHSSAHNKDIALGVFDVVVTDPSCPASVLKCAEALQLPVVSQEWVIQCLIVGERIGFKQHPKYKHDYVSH

Target: Tandem Affinity Purification (TAP)-tagged p53 (TAP-p53), mouse (mouse) (UniProt P02340)
Assay: tandem affinity purification of TAP-p53 from doxorubicin-treated mES cells, SDS-PAGE, mass spectrometry

With “p53-binding protein 1, mouse (from UniProt P70399 1-1969)” the binding was “binds”.
